Literature values in patent US20220054532A1, “VETERINARY COMPOSITIONS AND METHODS OF USE THEREFOR” (priority 2019, published 2022).

Conditions: cited from earlier work

C=C(C)[C@@H]1CCC(C)=C[C@H]1c1c(O)cc(CCCCC)cc1O [CBD Alone, 2-[(1R,6R)-3-methyl-6-prop-1-en-2-ylcyclohex-2-en-1-yl]-5-pentylbenzene-1,3-diol]
solubility in organic solvents (organic solvents, such as pentane): soluble
solubility in water (water): insoluble
